This is one part of the list.
What was measured:
Assay in all cases: glycan array binding signal (z-score within array); higher = stronger binding
Conditions in all cases: glycan notation: IUPAC condensed, linker removed
[1] = target: Neu5Ac(a2-8)Neu5Ac
Procedure, shortened: (§1)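 Arrays were curated from the Consortium for Functional Glycomics database, 3228 in total, and kept only where the protein sequence was available. Binding is expressed as a within-array Z-score. This score was averaged across arrays of the same protein sequence at different concentrations or buffers and across linkers, and negative values can be read as non-binding.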

[2] = target: Neu5Ac(a2-8)Neu5Ac(a2-3)Gal(b1-3)GalNAc(b1-4)[Neu5Ac(a2-3)]Gal(b1-4)Glc
Procedure, shortened: as §1

[3] = target: Neu5Ac(a2-8)Neu5Ac(a2-3)Gal(b1-3)GalNAc(b1-4)[Neu5Ac(a2-8)Neu5Ac(a2-3)]Gal(b1-4)Glc
Procedure, shortened: as §1

[4] = target: Neu5Ac(a2-8)Neu5Ac(a2-3)Gal(b1-4)Glc
Procedure, shortened: as §1

[5] = target: Neu5Ac(a2-8)Neu5Ac(a2-3)Gal(b1-4)GlcNAc
Procedure, shortened: as §1

[6] = target: Neu5Ac(a2-8)Neu5Ac(a2-3)[Gal(b1-3)GalNAc(b1-4)]Gal(b1-4)Glc
Procedure, shortened: as §1

[7] = target: Neu5Ac(a2-8)Neu5Ac(a2-3)[GalNAc(b1-4)]Gal(b1-4)Glc
Procedure, shortened: as §1

[8] = target: Neu5Ac(a2-8)Neu5Ac(a2-8)Neu5Ac
Procedure, shortened: as §1

[9] = target: Neu5Ac(a2-8)Neu5Ac(a2-8)Neu5Ac(a2-3)Gal(b1-4)Glc
Procedure, shortened: as §1

[10] = target: Neu5Ac(a2-8)Neu5Ac(a2-8)Neu5Ac(a2-3)[Gal(b1-3)GalNAc(b1-4)]Gal(b1-4)Glc
Procedure, shortened: as §1

[11] = target: Neu5Ac(a2-8)Neu5Ac(a2-8)Neu5Ac(a2-3)[GalNAc(b1-4)]Gal(b1-4)Glc
Procedure, shortened: as §1

[12] = target: Neu5Ac(a2-8)Neu5Ac(a2-8)Neu5Ac(a2-8)Neu5Ac(a2-3)[GalNAc(b1-4)]Gal(b1-4)Glc
Procedure, shortened: as §1

[13] = target: Neu5Ac(a2-8)Neu5Gc(a2-3)Gal(b1-4)GlcNAc
Procedure, shortened: as §1

[14] = target: Neu5Ac(b2-6)Gal(b1-4)GlcNAc
Procedure, shortened: as §1

[15] = target: Neu5Ac(b2-6)GalNAc
Procedure, shortened: as §1

[16] = target: Neu5Ac9Ac(a2-3)Gal(b1-3)GlcNAc
Procedure, shortened: as §1

[17] = target: Neu5Ac9Ac(a2-3)Gal(b1-4)GlcNAc
Procedure, shortened: as §1

[18] = target: Neu5Ac9Ac(a2-6)Gal(b1-4)GlcNAc
Procedure, shortened: as §1

[19] = target: Neu5Gc(a2-3)Gal(b1-3)GlcNAc
Procedure, shortened: as §1

[20] = target: Neu5Gc(a2-3)Gal(b1-3)[Fuc(a1-4)]GlcNAc
Procedure, shortened: as §1

[21] = target: Neu5Gc(a2-3)Gal(b1-4)Glc
Procedure, shortened: as §1

[22] = target: Neu5Gc(a2-3)Gal(b1-4)GlcNAc
Procedure, shortened: as §1

[23] = target: Neu5Gc(a2-3)Gal(b1-4)GlcNAc(b1-3)Gal(b1-4)GlcNAc(b1-2)Man(a1-3)[Neu5Gc(a2-3)Gal(b1-4)GlcNAc(b1-3)Gal(b1-4)GlcNAc(b1-2)Man(a1-6)]Man(b1-4)GlcNAc(b1-4)GlcNAc
Procedure, shortened: as §1

[24] = target: Neu5Gc(a2-3)Gal(b1-4)[Fuc(a1-3)]GlcNAc
Procedure, shortened: as §1

[25] = target: Neu5Gc(a2-6)Gal(b1-4)GlcNAc
Procedure, shortened: as §1

[26] = target: Neu5Gc(a2-6)GalNAc
Procedure, shortened: as §1

[27] = target: Neu5Gc(a2-8)Neu5Ac(a2-3)Gal(b1-4)GlcNAc
Procedure, shortened: as §1

[28] = target: Neu5Gc(a2-8)Neu5Gc(a2-3)Gal(b1-4)GlcNAc
Procedure, shortened: as §1

[29] = target: Neu5Gc(a2-8)Neu5Gc(a2-3)Gal(b1-4)GlcNAc(b1-3)Gal(b1-4)GlcNAc
Procedure, shortened: as §1

[30] = target: Neu5Gc(a2-8)Neu5Gc(a2-6)Gal(b1-4)GlcNAc
Procedure, shortened: as §1

[31] = target: Neu5Gc(b2-6)Gal(b1-4)GlcNAc
Procedure, shortened: as §1

B1: YghJ (Escherichia coli), E3PJ90 (protein)
chain: MNKKFKYKKSLLAAILSATLLAGCDGGGSGSSSDTPPVDSGTGSLPEVKPDPTPNPEPTPEPTPDPEPTPEPIPDPEPTPEPEPEPVPTKTGYLTLGGSQRVTGATCNGESSDGFTFKPGEDVTCVAGNTTIATFNTQSEAARSLRAVEKVSFSLEDAQELAGSDDKKSNAVSLVTSSNSCPANTEQVCLTFSSVIESKRFDSLYKQIDLAPEEFKKLVNEEVENNAATDKAPSTHTSPVVPVTTPGTKPDLNASFVSANAEQFYQYQPTEIILSEGRLVDSQGYGVAGVNYYTNSGRGVTGENGEFSFSWGEAISFGIDTFELGSVRGNKSTIALTELGDEVRGANIDQLIHRYSTTGQNNTRVVPDDVRKVFAEYPNVINEIINLSLSNGATLGEGEQVVNLPNEFIEQFNTGQAKEIDTAICAKTDGCNEARWFSLTTRNVNDGQIQGVINKLWGVDTNYKSVSKFHVFHDSTNFYGSTGNARGQAVVNISNAAFPILMARNDKNYWLAFGEKRAWDKNELAYITEAPSIVRPENVTRETASFNLPFISLGQVGDGKLMVIGNPHYNSILRCPNGYSWNGGVNKDGQCTLNSDPDDMKNFMENVLRYLSNDRWLPDAKSSMTVGTNLETVYFKKHGQVLGNSAPFAFHKDFTGITVKPMTSYGNLNPDEVPLLILNGFEYVTQWGSDPYSIPLRADTSKPKLTQQDVTDLIAYMNKGGSVLIMENVMSNLKEESASGFVRLLDAAGLSMALNKSVVNNDPQGYPDRVRQRRSTPIWVYERYPAVDGKPPYTIDDTTKEVIWKYQQENKPDDKPKLEVASWQEEVEGKQVTQFAFIDEADHKTPESLAAAKQRILDAFPGLEVCKDSDYHYEVNCLEYRPGTDVPVTGGMYVPQYTQLDLSADTAKAMLQAADLGTNIQRLYQHELYFRTNGRQGERLNSVDLERLYQNMSVWLWNETKYRYEEGKEDELGFKTFTEFLNCYTNNAYVGTQCSAELKKSLIDNKMIYGEESSKAGMMNPSYPLNYMEKPLTRLMLGRSWWDLNIKVDVEKYPGVVNTNGETVTQNINLYSAPTKWFAGNMQSTGLWAPAQQEVSIESKSTVPVTVTVALADDLTGREKHEVSLNRPPRVTKTYDLKANDKVTFKVPYGGLIYIKGDSKEVQSADFTFTGVVKAPFYKDGKWQHDLNSPAPLGELESASFVYTTPKKNLNASNYTGGLEQFANDLDTFASSMNDFYGRDSEDGKHRMFTYKNLPGHKHRFANDVQISIGDAHSGYPVMNSSFSPNSTTLPTTPLNDWLIWHEVGHNAAETPLTVPGATEVANNVLALYMQDRYLGKMNRVADDITVAPEYLEESNGQAWARGGAGDRLLMYAQLKEWAEKNFDIKKWYPDGTPLPEFYSEREGMKGWNLFQLMHRKARGDEVSNDKFGGKNYCAESNGNAADTLMLCASWVAQTDLSEFFKKWNPGANAYQLPGASEMSFEGGVSQSAYNTLASLDLPKPEQGPETINQVTEHKMSAE
- glycan array binding signal (z-score) [1]: -0.826
- glycan array binding signal (z-score) [2]: -1.39
- glycan array binding signal (z-score) [3]: -0.076
- glycan array binding signal (z-score) [4]: 0.732
- glycan array binding signal (z-score) [5]: 5.47
- glycan array binding signal (z-score) [6]: 0.298
- glycan array binding signal (z-score) [7]: -0.46
- glycan array binding signal (z-score) [8]: -0.308
- glycan array binding signal (z-score) [9]: -0.39
- glycan array binding signal (z-score) [10]: 0.361
- glycan array binding signal (z-score) [11]: 0.228
- glycan array binding signal (z-score) [12]: -0.944
- glycan array binding signal (z-score) [13]: -0.939
- glycan array binding signal (z-score) [14]: 0.893
- glycan array binding signal (z-score) [15]: -0.992
- glycan array binding signal (z-score) [16]: -0.281
- glycan array binding signal (z-score) [17]: 0.565
- glycan array binding signal (z-score) [18]: -0.926
- glycan array binding signal (z-score) [19]: -0.507
- glycan array binding signal (z-score) [20]: -0.198
- glycan array binding signal (z-score) [21]: 0.39
- glycan array binding signal (z-score) [22]: 2.24
- glycan array binding signal (z-score) [23]: 1.61
- glycan array binding signal (z-score) [24]: 0.314
- glycan array binding signal (z-score) [25]: -0.154
- glycan array binding signal (z-score) [26]: -0.149
- glycan array binding signal (z-score) [27]: 0.009
- glycan array binding signal (z-score) [28]: 0.084
- glycan array binding signal (z-score) [29]: 0.005
- glycan array binding signal (z-score) [30]: -0.85
- glycan array binding signal (z-score) [31]: 3.37

— the supplement of paper PMC8728848
